No constants are given. Whether binding was seen depends on the method and setting. Some binding calls cover weakened binding; strength is not graded here.
B1: AftA (enzyme, Corynebacterium glutamicum ATCC 13032, UniProt Q8NTW4 1-661, looked up)
chain: MNPYGPSRVPEGEVYRPDRLNRKATLVAIVGAAILAFAFALVLWMGLKQTNLPAFGPSNVTRAVASATIAAVLIVTGFLTWLWLRDEHQSNPRWELEDVKPRPKWRTALTYLASYLSPAALVVAVLAIPLSATRLYLDGISVDQGFRTQFLTRMADDIGLSDMNYIDMPTFYPAGWFWLGGRLANLLGLPGWEAFQPWAIVSMAVAASVLVPVWQRITGSLPVATGIALVTTCIILAMNSEEPYAAIVAMGIPAMLVLASRIAKGDKFALAGGIIYLGVSATFYTLFTGAIALSAVAVCIVVAAIVQRSIKPLLWLAVLGGGSIVIALISWGPYLLASINGAERSGDSATHYLPLEGTQFPVPFLASSVVGLLCLVGLIYLVVRFHNNEVRAMWVGIAVFYAWMGMSMAITLLGNTLLGFRLDTVLVLIFATAGVLGIADFRLASVYQLYPTQITERTATHLTNLIVVLVLLGGLYYAQDLPQKNARAIDLAYTDTDGYGERADLYPAGAARYYKDINDHLLDQGFEPSETVVLTDELDFMSYYPYRGYQAFTSHYANPLGEFGNRNAFIEDLAIRSWDELADPQQFSDALNTSPWTIPEVFIFRGSIDDPDAGWKYDVAEDLYPNNPNVRFRGVYFNPESFDQMWQTKQVGPFVVVTHNE
notes: AftA, arabinofuranosyltransferase, transmembrane, Corynebacterium glutamicum ATCC 13032; gene amplified from genomic DNA; One molecule for all four fusion forms; also called arabinofuranosyltransferase AftA; AftA-T25^N; source: E. coli BTH101, bacterial two-hybrid (BACTH) fusion; not shown: T25 or T18 fragment of Bordetella pertussis adenylate cyclase, N-terminal or C-terminal (each tested), kept
B2: AftB (enzyme, Corynebacterium glutamicum ATCC 13032, UniProt Q8NLR0 1-686, looked up)
chain: MTFSPQRPEFETGKQPDPETEHAGDFFEETSSSAPRAASNGSSGPNYTLITTFLAALTAGIFAFWAGWTRKWISDDGLIVLRTVRNLLAGNGPVFNAGERVEANTSTLWQYCIYLVALVTDYRLEDIALWLALLFTTAASIIGVLGTAHLHRKRIAVLLPAGVIGYFSLSPARDFATSGLEWGLSLMWISIQWLLLVLWATSGKTSGKKASGAKTSNPIVNAGAITYALAFWSGLSWLVRPELAMYGGLTGVLLLLTAPRWRVVLGILVAALPLPAAYQIFRMGYYGLMVPHTAVAKSASDAVWGTGWEYVEDFTGPYNLWLGLALLLAAGALTVWKTDKHLAIPKGRLGLRTPGMAIALLVICALVHFLYVIRVGGDFMHGRMLLLPLFAILLPVSVIPVNVVDRGWQDLVALVLVFSTWVWSTVVFVQGHQWENTGQHVVDERDFWIDFTNRDEDHPPLYAEDFLTVDSMNDYAEVMRDQTLVNPTGQQLNILASSDPTTYSWITTPRVEGVEAGDLANLSPTVFHVNLGMTSMNAPLNVRVTDLIGLATPLAARQPRIEGGRIGHDKLMDLEWQVAESATPLAYTPGWLDTQKTYEARQALRHPELVHLFQTYREPMSYHRFVDNIKYALTTGRTLEISDNPEDLLKEFNPTPAEIQDGLETIAWPGEIKLDEPRGEPLYSSQ
notes: AftB, arabinofuranosyltransferase, transmembrane, Corynebacterium glutamicum ATCC 13032; gene amplified from genomic DNA; One molecule for all four fusion forms; also called arabinofuranosyltransferase AftB; AftB-T25^N; source: E. coli BTH101, bacterial two-hybrid (BACTH) fusion; not shown: T25 or T18 fragment of Bordetella pertussis adenylate cyclase, N-terminal or C-terminal (each tested), kept
B3: AftC (enzyme, Corynebacterium glutamicum ATCC 13032, UniProt Q8NPB7 1-418, looked up)
chain: MSFSPVAPSISAPTPRRSRWDSIGNAVAWPLAMLLMAHRFFVLAINGAVTDDFTTVYSALRRFVEGIPVYNEVYHFVDPHYLYNPGATLLLAPLGYITHFTLARWMFIAVNLLAIVLAFGLLTRLSGWALRSMVWPIAIALAMLTETVQNTLIFSNINGILLLMLAIFLWCVVHKKSWLGGLVIGLAILIKPMFLPLLFLPLVKKQWGSLILGILTPVIFNAVAWFLVPGASEYVTRTMPYLGETRDFANSSLPGLAIYFGMPTWMEITWFLIFGAMVGLAVLALLRFRNTEPYFWAATTTGVLLTGVFFLSSLGQMYYSMMIFPMIFTLLGSRSVFHNWVAWVAAYFFLSPDTFTSQRLPDVARWMEFFSATVGWGLLIVVTFVSALIWFIGDIRAKGTPSSPITTDPTHDHLERTA
notes: AftC, arabinofuranosyltransferase, transmembrane, Corynebacterium glutamicum ATCC 13032; gene amplified from genomic DNA; One molecule for all four fusion forms; also called arabinofuranosyltransferase AftC; AftC-T25^C; source: E. coli BTH101, bacterial two-hybrid (BACTH) fusion; not shown: T25 or T18 fragment of Bordetella pertussis adenylate cyclase, N-terminal or C-terminal (each tested), kept

Experiments:
Assay in all cases: two-hybrid; bacterial adenylate cyclase two-hybrid (BACTH) in E. coli cya BTH101; T25 and T18 fusions at N- or C-terminus co-expressed; co-transformants spotted on LB/X-gal, MacConkey/maltose and M63 plates with 0.5 mM IPTG, colour read after 48 h at 30 °C; 577 pairs screened; results as summarised in Table 2
[1] = biological target: AftA (Corynebacterium glutamicum ATCC 13032) (UniProt Q8NTW4)
[2] = biological target: T1, AftC (Corynebacterium glutamicum ATCC 13032) (UniProt Q8NPB7)
T1 sequence: B3 chain

[3] = biological target: T2, AftB (Corynebacterium glutamicum ATCC 13032) (UniProt Q8NLR0)
T2 sequence: B2 chain

| binding [1] | binding [2] | binding [3] | Binder |
| --- | --- | --- | --- |
| binds | binds | binds | B1 |
| – | binds | binds | B2 |
| – | binds | – | B3 |

Reference: PMC4213368, “Elucidation of a protein-protein interaction network involved in Corynebacterium glutamicum cell wall biosynthesis as determined by bacterial two-hybrid analysis” (Glycoconjugate Journal, 2014)
